Measurements published in paper doi:10.1101/2024.10.18.619078.

Target: T1, GST-IBR3 (Arabidopsis thaliana) (UniProt Q8RWZ3)
T1 sequence: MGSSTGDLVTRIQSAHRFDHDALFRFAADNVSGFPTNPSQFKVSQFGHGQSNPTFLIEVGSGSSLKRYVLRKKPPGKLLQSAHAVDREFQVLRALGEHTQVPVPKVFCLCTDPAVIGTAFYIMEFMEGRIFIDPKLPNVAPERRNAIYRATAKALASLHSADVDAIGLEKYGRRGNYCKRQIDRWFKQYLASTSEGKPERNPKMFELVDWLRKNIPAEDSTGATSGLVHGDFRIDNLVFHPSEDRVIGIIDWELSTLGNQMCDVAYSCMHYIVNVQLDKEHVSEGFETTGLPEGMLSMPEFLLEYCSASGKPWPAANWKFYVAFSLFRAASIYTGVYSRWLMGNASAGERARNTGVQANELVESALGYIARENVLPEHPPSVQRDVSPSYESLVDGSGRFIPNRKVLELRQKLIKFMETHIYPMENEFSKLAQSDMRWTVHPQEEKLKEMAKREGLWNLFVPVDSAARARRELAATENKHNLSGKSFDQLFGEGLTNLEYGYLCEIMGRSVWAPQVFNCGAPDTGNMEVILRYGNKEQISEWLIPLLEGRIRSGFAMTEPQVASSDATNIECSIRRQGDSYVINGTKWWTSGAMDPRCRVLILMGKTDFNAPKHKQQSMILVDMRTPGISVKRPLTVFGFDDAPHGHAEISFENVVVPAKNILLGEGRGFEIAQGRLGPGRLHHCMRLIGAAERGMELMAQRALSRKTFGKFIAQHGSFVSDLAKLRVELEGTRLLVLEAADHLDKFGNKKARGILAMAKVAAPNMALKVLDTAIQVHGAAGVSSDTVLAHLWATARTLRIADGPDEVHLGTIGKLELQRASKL
Test: pull-down

| binding | Substance |
| --- | --- |
| binds | 12xHis-LIFERING C392R (Arabidopsis thaliana) (enzyme) |
| binds | 12xHis-LIFERING, wild-type (Cys392) (Arabidopsis thaliana) (enzyme) |

Results are given in words; binding and its absence hold for the method and conditions named. In cells and extracts the contact can be indirect. A result given as binding can be weak or reduced; the word gives no strength. Sequences can lack the tags named with a protein.
